Laboratory results: the supplement of paper PMC8728848
This is one part of the list.

How the values were obtained:
Test in all cases: glycan array binding signal (z-score within array); higher = stronger binding
Conditions in all cases: glycan notation: IUPAC condensed, linker removed
[1] = target: Gal(b1-4)GlcNAc(b1-2)Man(a1-3)[Gal(b1-4)GlcNAc(b1-2)Man(a1-6)]Man(b1-4)GlcNAc(b1-4)GlcNAc
Summary of the method: (§1)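 The binding signal is a Z-score computed within each array. Data were drawn from 3228 arrays in the Consortium for Functional Glycomics database, restricted to those with a known protein sequence. Scores were averaged over arrays of the same protein sequence at different concentrations or buffers, and over linkers, and negative values can be taken as non-binding.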

[2] = target: Gal(b1-4)GlcNAc(b1-2)Man(a1-3)[Gal(b1-4)GlcNAc(b1-2)Man(a1-6)]Man(b1-4)GlcNAc(b1-4)[Fuc(a1-6)]GlcNAc
Summary of the method: as §1

[3] = target: Gal(b1-4)GlcNAc(b1-2)Man(a1-3)[Gal(b1-4)GlcNAc(b1-2)Man(a1-6)][Gal(b1-4)GlcNAc(b1-4)]Man(b1-4)GlcNAc(b1-4)[Fuc(a1-6)]GlcNAc
Summary of the method: as §1

[4] = target: Gal(b1-4)GlcNAc(b1-2)Man(a1-3)[Gal(b1-4)GlcNAc(b1-2)Man(a1-6)][GlcNAc(b1-4)]Man(b1-4)GlcNAc(b1-4)[Fuc(a1-6)]GlcNAc
Summary of the method: as §1

[5] = target: Gal(b1-4)GlcNAc(b1-2)Man(a1-3)[GlcNAc(b1-2)Man(a1-6)]Man(b1-4)GlcNAc(b1-4)GlcNAc
Summary of the method: as §1

[6] = target: Gal(b1-4)GlcNAc(b1-2)Man(a1-3)[GlcNAc(b1-4)][Gal(b1-4)GlcNAc(b1-2)Man(a1-6)]Man(b1-4)GlcNAc(b1-4)GlcNAc
Summary of the method: as §1

[7] = target: Gal(b1-4)GlcNAc(b1-2)Man(a1-3)[Man(a1-6)]Man(b1-4)GlcNAc(b1-4)GlcNAc
Summary of the method: as §1

[8] = target: Gal(b1-4)GlcNAc(b1-2)Man(a1-6)Man(b1-4)GlcNAc(b1-4)GlcNAc
Summary of the method: as §1

[9] = target: Gal(b1-4)GlcNAc(b1-2)Man(a1-6)[GlcNAc(b1-2)Man(a1-3)]Man(b1-4)GlcNAc(b1-4)GlcNAc
Summary of the method: as §1

[10] = target: Gal(b1-4)GlcNAc(b1-2)Man(a1-6)[Man(a1-3)]Man(b1-4)GlcNAc(b1-4)GlcNAc
Summary of the method: as §1

[11] = target: Gal(b1-4)GlcNAc(b1-2)[Gal(b1-4)GlcNAc(b1-4)]Man(a1-3)[Gal(b1-4)GlcNAc(b1-2)Man(a1-6)]Man(b1-4)GlcNAc(b1-4)GlcNAc
Summary of the method: as §1

[12] = target: Gal(b1-4)GlcNAc(b1-2)[Gal(b1-4)GlcNAc(b1-4)]Man(a1-3)[Gal(b1-4)GlcNAc(b1-2)[Gal(b1-4)GlcNAc(b1-6)]Man(a1-6)]Man(b1-4)GlcNAc(b1-4)GlcNAc
Summary of the method: as §1

[13] = target: Gal(b1-4)GlcNAc(b1-2)[Gal(b1-4)GlcNAc(b1-4)]Man(a1-3)[GlcNAc(b1-4)][Gal(b1-4)GlcNAc(b1-2)Man(a1-6)]Man(b1-4)GlcNAc(b1-4)GlcNAc
Summary of the method: as §1

[14] = target: Gal(b1-4)GlcNAc(b1-2)[Gal(b1-4)GlcNAc(b1-4)]Man(a1-3)[GlcNAc(b1-4)][Gal(b1-4)GlcNAc(b1-2)[Gal(b1-4)GlcNAc(b1-6)]Man(a1-6)]Man(b1-4)GlcNAc(b1-4)GlcNAc
Summary of the method: as §1

[15] = target: Gal(b1-4)GlcNAc(b1-2)[Gal(b1-4)GlcNAc(b1-6)]Man(a1-6)[Gal(b1-4)GlcNAc(b1-2)Man(a1-3)]Man(b1-4)GlcNAc(b1-4)GlcNAc
Summary of the method: as §1

[16] = target: Gal(b1-4)GlcNAc(b1-2)[Gal(b1-4)GlcNAc(b1-6)]Man(a1-6)[Gal(b1-4)GlcNAc(b1-2)Man(a1-3)]Man(b1-4)GlcNAc(b1-4)[Fuc(a1-6)]GlcNAc
Summary of the method: as §1

[17] = target: Gal(b1-4)GlcNAc(b1-2)[Gal(b1-4)GlcNAc(b1-6)]Man(a1-6)[GlcNAc(b1-4)][Gal(b1-4)GlcNAc(b1-2)Man(a1-3)]Man(b1-4)GlcNAc(b1-4)GlcNAc
Summary of the method: as §1

[18] = target: Gal(b1-4)GlcNAc(b1-2)[Gal(b1-4)GlcNAc(b1-6)]Man(a1-6)[GlcNAc(b1-4)][Gal(b1-4)GlcNAc(b1-2)[Gal(b1-4)GlcNAc(b1-4)]Man(a1-3)]Man(b1-4)GlcNAc(b1-4)[Fuc(a1-6)]GlcNAc
Summary of the method: as §1

[19] = target: Gal(b1-4)GlcNAc(b1-3)Gal(b1-3)GalNAc
Summary of the method: as §1

B1: Epa21 (Candida glabrata) (protein)
chain: MGSSHHHHHHSSGLVPRGSHMASTPNIESHPQGCSPVDTSGIKPGLKMDLYRFPITPPGTGCWSWDWLTVTPDFPRSGYWKWPKIAEVDGVVGPLHLDSGHPTCDPLTSVLPHGFNYLQSITTTNFTMVLHGYFVPKQSGKYTFEFKADDALLLNLGAGNAFSCCDYNNSQYNQGEYLAYAIWSKNNQTATLYLEKGIYYPIRVFYHNRCCGAYMDVVYYFNDSPIPNRDFSGLLFSIPDSDSCDANI
glycan array binding signal (z-score) [1]: -0.39 | glycan array binding signal (z-score) [2]: 0.108 | glycan array binding signal (z-score) [3]: -0.562 | glycan array binding signal (z-score) [4]: -0.687 | glycan array binding signal (z-score) [5]: -0.699 | glycan array binding signal (z-score) [6]: -0.598 | glycan array binding signal (z-score) [7]: 0.362 | glycan array binding signal (z-score) [8]: -0.267 | glycan array binding signal (z-score) [9]: -0.516 | glycan array binding signal (z-score) [10]: -0.334 | glycan array binding signal (z-score) [11]: -0.354 | glycan array binding signal (z-score) [12]: -0.734 | glycan array binding signal (z-score) [13]: -0.441 | glycan array binding signal (z-score) [14]: -0.549 | glycan array binding signal (z-score) [15]: -0.692 | glycan array binding signal (z-score) [16]: -0.604 | glycan array binding signal (z-score) [17]: -0.708 | glycan array binding signal (z-score) [18]: -0.791 | glycan array binding signal (z-score) [19]: -0.109
